## Results of single-concentration screens

By UniProt entry, the sequences of proteins in these tests, tags left out. Residues count along the entry.
UniProt I6X8D2, whole entry: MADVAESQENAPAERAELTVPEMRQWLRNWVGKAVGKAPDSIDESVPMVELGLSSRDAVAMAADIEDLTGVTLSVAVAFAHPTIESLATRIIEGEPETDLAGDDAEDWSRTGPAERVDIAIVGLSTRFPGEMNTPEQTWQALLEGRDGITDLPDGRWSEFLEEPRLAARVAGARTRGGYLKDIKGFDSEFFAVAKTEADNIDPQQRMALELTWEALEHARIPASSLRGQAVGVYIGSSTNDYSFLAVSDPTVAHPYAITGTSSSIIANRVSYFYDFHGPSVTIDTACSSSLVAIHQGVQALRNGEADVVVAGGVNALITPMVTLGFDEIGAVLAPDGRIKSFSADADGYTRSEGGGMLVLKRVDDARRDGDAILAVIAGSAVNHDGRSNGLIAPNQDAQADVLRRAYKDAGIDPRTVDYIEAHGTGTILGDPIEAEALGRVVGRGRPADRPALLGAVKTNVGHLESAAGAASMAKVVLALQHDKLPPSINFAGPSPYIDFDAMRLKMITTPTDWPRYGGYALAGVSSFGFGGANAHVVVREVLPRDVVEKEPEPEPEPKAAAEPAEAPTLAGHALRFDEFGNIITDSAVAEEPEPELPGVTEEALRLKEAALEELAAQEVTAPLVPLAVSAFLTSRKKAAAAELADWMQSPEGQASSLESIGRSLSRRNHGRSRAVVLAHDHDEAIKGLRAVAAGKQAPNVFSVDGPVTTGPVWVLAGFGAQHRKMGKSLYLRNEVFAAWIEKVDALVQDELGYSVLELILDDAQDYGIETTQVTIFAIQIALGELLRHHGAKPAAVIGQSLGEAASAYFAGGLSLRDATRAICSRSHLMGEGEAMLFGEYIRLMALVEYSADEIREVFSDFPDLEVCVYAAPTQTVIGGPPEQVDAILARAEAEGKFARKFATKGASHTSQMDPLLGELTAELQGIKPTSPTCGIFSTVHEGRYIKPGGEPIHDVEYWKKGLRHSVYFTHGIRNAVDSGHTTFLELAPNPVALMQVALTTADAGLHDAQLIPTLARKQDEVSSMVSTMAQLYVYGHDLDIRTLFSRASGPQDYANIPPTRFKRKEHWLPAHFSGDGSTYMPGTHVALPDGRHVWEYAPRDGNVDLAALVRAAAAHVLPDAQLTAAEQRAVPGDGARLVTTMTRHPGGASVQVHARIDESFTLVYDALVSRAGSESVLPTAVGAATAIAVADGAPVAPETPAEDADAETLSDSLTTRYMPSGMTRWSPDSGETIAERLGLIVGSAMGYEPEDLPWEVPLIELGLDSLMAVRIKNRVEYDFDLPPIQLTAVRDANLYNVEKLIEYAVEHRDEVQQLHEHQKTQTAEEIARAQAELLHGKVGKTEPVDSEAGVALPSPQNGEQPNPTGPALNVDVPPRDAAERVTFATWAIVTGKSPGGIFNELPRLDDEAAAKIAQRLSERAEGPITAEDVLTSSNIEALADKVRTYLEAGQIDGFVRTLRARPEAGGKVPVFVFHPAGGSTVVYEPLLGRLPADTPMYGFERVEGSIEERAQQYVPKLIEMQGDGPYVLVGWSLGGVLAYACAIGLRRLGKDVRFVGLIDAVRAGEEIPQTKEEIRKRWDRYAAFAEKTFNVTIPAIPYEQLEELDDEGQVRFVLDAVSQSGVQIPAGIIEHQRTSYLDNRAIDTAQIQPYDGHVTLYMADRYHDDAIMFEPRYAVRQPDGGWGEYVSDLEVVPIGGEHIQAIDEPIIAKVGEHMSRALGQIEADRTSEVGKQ
UniProt P9WNZ1, whole entry: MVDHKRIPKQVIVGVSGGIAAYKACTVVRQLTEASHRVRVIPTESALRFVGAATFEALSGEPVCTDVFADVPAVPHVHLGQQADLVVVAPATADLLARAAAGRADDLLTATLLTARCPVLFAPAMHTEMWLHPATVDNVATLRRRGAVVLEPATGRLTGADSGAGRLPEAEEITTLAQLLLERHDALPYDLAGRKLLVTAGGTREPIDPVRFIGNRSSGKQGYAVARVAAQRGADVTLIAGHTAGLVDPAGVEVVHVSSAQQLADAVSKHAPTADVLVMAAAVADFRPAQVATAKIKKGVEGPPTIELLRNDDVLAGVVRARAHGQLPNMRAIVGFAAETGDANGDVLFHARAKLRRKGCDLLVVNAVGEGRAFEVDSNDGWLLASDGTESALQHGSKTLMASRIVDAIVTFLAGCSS
UniProt Q8IDJ8, 1-583: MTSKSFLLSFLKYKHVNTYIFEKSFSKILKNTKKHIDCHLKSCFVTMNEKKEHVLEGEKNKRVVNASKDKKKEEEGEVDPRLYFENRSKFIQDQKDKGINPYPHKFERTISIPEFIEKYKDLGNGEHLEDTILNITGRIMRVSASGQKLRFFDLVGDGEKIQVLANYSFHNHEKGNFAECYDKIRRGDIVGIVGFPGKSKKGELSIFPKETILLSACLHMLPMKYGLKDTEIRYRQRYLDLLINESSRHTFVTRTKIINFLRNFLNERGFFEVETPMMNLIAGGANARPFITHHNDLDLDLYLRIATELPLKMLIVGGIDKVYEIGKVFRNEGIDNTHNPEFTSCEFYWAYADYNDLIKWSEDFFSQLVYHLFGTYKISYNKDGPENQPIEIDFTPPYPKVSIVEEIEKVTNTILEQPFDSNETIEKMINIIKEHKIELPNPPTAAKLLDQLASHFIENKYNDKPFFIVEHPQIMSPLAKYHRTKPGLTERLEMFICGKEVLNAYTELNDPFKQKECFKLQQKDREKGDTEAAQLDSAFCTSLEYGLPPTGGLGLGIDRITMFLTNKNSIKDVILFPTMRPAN
UniProt Q4DA54, 1-478: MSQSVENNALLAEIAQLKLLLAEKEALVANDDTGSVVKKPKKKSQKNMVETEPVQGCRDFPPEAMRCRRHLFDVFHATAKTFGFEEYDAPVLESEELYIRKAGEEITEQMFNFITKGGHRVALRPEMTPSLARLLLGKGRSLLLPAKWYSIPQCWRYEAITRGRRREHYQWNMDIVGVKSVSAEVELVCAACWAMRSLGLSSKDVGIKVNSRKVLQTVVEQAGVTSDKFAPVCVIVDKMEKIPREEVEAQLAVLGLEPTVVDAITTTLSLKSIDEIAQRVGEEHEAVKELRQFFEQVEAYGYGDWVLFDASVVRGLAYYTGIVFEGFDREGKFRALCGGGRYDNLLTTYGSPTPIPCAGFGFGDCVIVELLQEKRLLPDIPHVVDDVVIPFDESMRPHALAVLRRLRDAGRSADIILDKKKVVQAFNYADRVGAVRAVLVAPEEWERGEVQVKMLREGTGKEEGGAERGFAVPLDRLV

From ChEMBL document CHEMBL3988442, “University of Dundee, Small-Polar-MMV Screening Library” (2021).

Results are given as percent effect.
The record does not define 0% and 100%; most values in the screen are far below 50% and negative numbers occur (in some assays of this library far below -100).
Compounds were drawn at random from those tested, without regard to their results.
Two or more numbers in one place are separate tests of the same structure; such repeats can differ widely.

Pks13 thioesterase: 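Polyketide synthase Pks13, Mycobacterium tuberculosis (UniProt I6X8D2). Enzyme assay of the thioesterase domain of polyketide synthase 13; the read-out is not stated. Tested at 30 µM. Higher reads as stronger inhibition (inferred from which compounds were picked for retests). Size under these conditions: about 67,000 compounds, about 300 of them at 50% or above in at least one test.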
CoaBC: 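Enzyme assay of CoaBC with a phosphate dye (Biomol Green) read at 650 nm. Target: Coenzyme A biosynthesis protein CoaBC, Mycobacterium tuberculosis (UniProt P9WNZ1). Compounds at 30 µM. Higher reads as stronger inhibition, judged from the few compounds that gave an IC50. Most strong results did not repeat in a second test. Of about 67,000 compounds tested this way, about 40 (0.06%) reached 50% or more in at least one test.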
PfKRS1: 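Enzyme assay of the cytosolic lysyl-tRNA synthetase in 384-well plates, read by luminescence. Target: Lysine-tRNA ligase, Plasmodium falciparum 3D7 (UniProt Q8IDJ8). Compounds at 30 µM. Higher reads as stronger inhibition, judged from the few compounds that gave an IC50. About 69,000 compounds were tested under these conditions; 0.071% (about 49) showed 50% or more at least once.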
TcHisRS: 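Histidine-tRNA ligase, Trypanosoma cruzi CL Brener (UniProt Q4DA54). Enzyme assay of histidyl-tRNA synthetase; the read-out is not stated. Compounds at 30 µM. Higher reads as stronger inhibition (inferred: compounds with an IC50 in retests scored well above the rest). Of about 69,000 compounds tested this way, about 31 (0.045%) reached 50% or more in at least one test.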

Compound	Pks13 thioesterase	CoaBC	PfKRS1	TcHisRS
Cn1cc(C(=O)Nc2ccc3c(c2)CN(C(=O)c2ccco2)CC3)nn1	8.256%	2.408%	-1.094%	3.261%
COCCCC(=O)N1CC(=O)Nc2cc(Br)ccc21	-8.696%	6.773%	4.395%	-1.053%
CCc1cc(=O)[nH]c(-c2ccc(NC(CO)CC(C)C)nc2)n1 (stereo unspecified)	-2.698%	6.163%	3.98%	3.704%
CC(=O)N1CCC(Oc2cccc(C#N)c2)CC1	-24.16%	0.813%	-0.799%	3.922%
CCOCc1ccc(CNC2=NCCCN2)cc1	0.9032%	-16.3%	4.37%	3.933%
COc1cc2c(nn1)CCN(Cc1noc(CC(C)C)n1)C2	1.536%	0.9901%	0.606%	15.66%
O=C(c1ccn(COc2ccc(F)cc2)n1)N1CCCCCC1	-16.91%	-1.617%	0.8926%	1.739%
Cc1nc(CN2CCCN(CCOc3cccc(C#N)c3)CC2)no1	-19.22%	-7.513%	-6.128%	5.303%
CCOC(CC)C(=O)NCCC(=O)N1CCN(c2ccccn2)CC1 (stereo unspecified)	-21.27%	4.453%	1.242%	-1.087%
O=C(c1ccco1)N1CCC(n2nc(-c3cccs3)ccc2=O)CC1	-4.226%	-2.941%	0.2792%	4.255%
CCn1cnnc1CNC(=O)c1ccc(Cl)cc1I	16.96%	4.962%	-0.8813%	3.944%
CC(C(=O)O)N1CC2(CCC1=O)CCN(CCSc1ccccc1)CC2 (stereo unspecified)	-11.51%	0.5115%	10.64%	4.04%
CO[C@H]1CN(S(=O)(=O)c2cn(C)cn2)[C@@H]2CCCO[C@H]12	-19.24%	0%	3.571%	7.097%
CSC1(CNC(=O)CCc2ccc(Cl)s2)CCOCC1	-17.76%	0.3891%	1.608%	0%
O=C(NCCN1CCCCC1)c1ccn(-c2ccc(F)cc2)n1	8.879%	-12.22%	-0.4023%	4.942%
CC(C)(C)Nc1c(C2CCCN(C(=O)C3CC3)C2)nc2ccccn12 (stereo unspecified)	-15.39%	1.233%	1.882%	1.515%
O=C1[C@@H]2CCN(Cc3ccccn3)C[C@@H]2OCCN1c1ccccc1	-5.797%	1.854%	4.201%	9.184%
Cn1cccc(NC(=O)NCc2cccc(CO)c2)c1=O	4.863%	-5.244%	5.111%	-0.6024%
CCOC(=O)CN1CCC2(CC1)CC(NC(=O)c1ccccn1)CO2 (stereo unspecified)	-13.96%	-0.2105%	1.185%	5.376%
Cc1cc(CN2CCc3nn(C(C)C)c(=O)cc3C2)no1	-6.227%	-1.035%	10.34%	1.604%
CN(C)c1cc(CNC(=O)NCC2(C)CCCS2)ccn1 (stereo unspecified)	0.4486%	-3.181%	2.69%	9.135%
Cc1ccc(NC(=O)NC(C)c2nc[nH]n2)cc1Cl (stereo unspecified)	-26.08%	-2.575%	3.459%	3.488%
Cc1nn2c(N3CCCC(C(N)=O)C3)cc(-c3ccccc3)nc2c1C (stereo unspecified)	-20.11%	3.03%	3.125%	9.184%
CC(C)Oc1cccc(Cc2nc3c([nH]2)CCCNC3=O)c1	-13.12%	1.261%	1.649%	8.889%
Cn1cnc(S(=O)(=O)N2C[C@H]3CN(Cc4ccccn4)C[C@H]3C2)c1	-20.43%	-1.48%	-0.2987%	5.376%
CCCc1ccc(CN2C[C@H]3C(=O)N(CC4CC4)C[C@@]3(C(=O)O)C2)o1	-6.911%	9.073%	-2.635%	2.174%
COc1ccc(CCn2cnnc2[S+](C)[O-])cc1 (stereo unspecified)	-8.963%	2.457%	3.208%	4.938%
CNCc1ccc([C@@H]2CN(C)C[C@H]2C(N)=O)cc1	-29.95%	7.177%	-1.438%	7.28%
CCC(O)CN(CC(=O)NC(=O)NC1CC1)c1ccccc1 (stereo unspecified)	-13.58%	-1.944%	7.063%	-1.681%
COCCOc1cccc(C(=O)N2CCCCC2c2nccs2)c1 (stereo unspecified)	-14.62%	-8.498%	-0.6422%	3.779%
COc1cc(N2CCCn3cnc(COCCO)c3C2)ncn1	-29.81%	6.554%	3.669%	7.527%
Cc1nc(Cn2cnc3c(c(Br)nn3C)c2=O)cs1	13.97%	5.968%	10.38%	16.07%
CC[C@@]1(O)CCN(C(=O)c2ccoc2)C[C@H]1O	-9.587%	1.333%	3.46%	-18.37%
COc1cc(/C=C/c2ncc(C(=O)O)s2)cc(Cl)c1O	64.88%	37.08% & 13.76%	8.226%	2.632%
Clc1ccccc1C1(c2ccnc(CC3CC3)n2)CCNCC1	-24.58%	-52.27%	1.576%	6.695%
CCCN(CC1CC1)S(=O)(=O)c1ccc(NC(C)=O)cc1	-47.97%	-0.4274%	0.3307%	3.784%
O=C1NCCO[C@H]2CN(C(=O)CCc3ccc(Cl)cc3)CC[C@@H]12	-34.8%	4.303%	3.6%	-13.79%
CCc1nc(C(=O)NCc2ccc(N3CCNC(=O)C3)c(F)c2)c[nH]1	-37.3%	8.316%	-2.891%	0%
COCCN1CCCn2c(nc(CNC(=O)COC)cc2=O)C1	-16.26%	-1.975%	3.358%	-22.22%
CCN(Cc1ccco1)C(C)c1nc(C(C)(C)C)no1 (stereo unspecified)	-20.55%	1.434%	2.222%	4.255%
O=C1NC2(CCN(Cc3cccs3)CC2)CC1c1ccncc1 (stereo unspecified)	-5.728%	-0.8403%	2.741%	9.091%
CC(Nc1cccc2c1OCCO2)C(=O)Nc1ccc(S(N)(=O)=O)cc1 (stereo unspecified)	-20.94%	-23.13%	1.395%	4.867%
COc1ccccc1CNC(=O)N1CCCC(c2nncn2C)C1 (stereo unspecified)	-11.43%	12.19%	4.237%	-1.515%
COCc1ccccc1NC(=O)[C@@H]1CCCN1C(=O)c1ccco1	2.332%	1.266%	-0.1524%	0.813%
CCc1nc(NCCCOC)c2c(n1)c(C)nn2C	-29.8%	6.057%	6.122%	4.918%
CS(=O)(=O)CCN1CCC(=Cc2ccccc2)CC1	-10.7%	3.431%	4.443%	11.9%
CC(=O)N(CCc1ccccc1)CC(=O)NC(C)(C)C#N	2.258%	1.107%	-0.09799%	5.747%
Cc1cc2nc(CO[C@H]3CN(C4CCN(C)CC4)C[C@H]3F)[nH]c2cc1C	-13.91%	-11.7%	6.255%	7.609%
O=C(CCc1cc(O)no1)N1CCCC(OCc2cccnc2)C1 (stereo unspecified)	7.911%	0.2538%	9.311%	3.139%
CC(=O)N1C(CN2CCCC2)C[C@@H]2CN(C(=O)c3ccoc3)CC[C@@H]21 (stereo partly specified)	-14.71%	3.99%	0.161%	-0.9709%
COCCCNC(=O)Nc1cccc2c1CCN(S(C)(=O)=O)C2	-13.53%	10.33%	-3.088%	1.667%
COCCCNC(=O)C(C)n1nc(-c2ccco2)cc(N)c1=O (stereo unspecified)	-8.765%	-0.9132%	-0.9524%	2.571%

The last 3 entries again:

{"compound": "CC(=O)N1C(CN2CCCC2)C[C@@H]2CN(C(=O)c3ccoc3)CC[C@@H]21", "stereo": "stereo partly specified", "Pks13 thioesterase": -14.71, "CoaBC": 3.99, "PfKRS1": 0.161, "TcHisRS": -0.9709}
{"compound": "COCCCNC(=O)Nc1cccc2c1CCN(S(C)(=O)=O)C2", "Pks13 thioesterase": -13.53, "CoaBC": 10.33, "PfKRS1": -3.088, "TcHisRS": 1.667}
{"compound": "COCCCNC(=O)C(C)n1nc(-c2ccco2)cc(N)c1=O", "stereo": "stereo unspecified", "Pks13 thioesterase": -8.765, "CoaBC": -0.9132, "PfKRS1": -0.9524, "TcHisRS": 2.571}